Measured values reported in PMC6760125.
These are yes or no findings as the source states them, for the method shown. Binding seen in cells or lysates may run through a third protein. Binding calls can cover weak binding; strength is not graded here.

Molecular target: T1, phosphoinositide-dependent kinase 1 (human (endogenous in RERF-LC-AI)) (UniProt O15530)
T1 sequence: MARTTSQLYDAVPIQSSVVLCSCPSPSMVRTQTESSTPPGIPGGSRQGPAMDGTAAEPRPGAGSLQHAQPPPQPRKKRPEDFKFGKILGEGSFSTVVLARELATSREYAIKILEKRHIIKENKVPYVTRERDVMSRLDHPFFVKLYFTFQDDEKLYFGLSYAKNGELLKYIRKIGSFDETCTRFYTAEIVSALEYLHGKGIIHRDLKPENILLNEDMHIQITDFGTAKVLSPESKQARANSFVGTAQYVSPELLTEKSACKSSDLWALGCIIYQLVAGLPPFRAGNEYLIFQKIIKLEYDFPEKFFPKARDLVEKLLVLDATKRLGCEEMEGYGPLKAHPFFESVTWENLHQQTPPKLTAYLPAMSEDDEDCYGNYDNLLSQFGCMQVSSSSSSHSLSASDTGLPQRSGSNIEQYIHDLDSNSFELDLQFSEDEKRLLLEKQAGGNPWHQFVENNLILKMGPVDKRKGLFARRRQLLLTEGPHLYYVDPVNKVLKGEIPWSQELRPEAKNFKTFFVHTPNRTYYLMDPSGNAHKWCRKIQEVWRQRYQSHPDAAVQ
Experiment: co-IP; lysates of RERF-LC-AI cells treated with or without 10 μM chrysin, incubated with Protein G-sepharose and anti-PDK1 antibody for 16 h at 4 °C; washed four times with 150 mM NaCl, 0.5 mM EDTA, 0.5% Triton X-100, 50 mM Tris-HCl (pH 7.4); western blotting for Akt and PDK1

Akt (human (endogenous in RERF-LC-AI))
binding: binds
